# Patent US20250382621A1, “IMMUNE EFFECTOR CELL THERAPIES WITH ENHANCED EFFICACY” (Novartis AG, priority 2015, published 2025)
# At least one compound was matched to its structure with a doubt left.
# Key:
# [1] = system: CD19-CART and BCMA-CART cells
# luciferized KMS11 tumors = experiment: In vivo efficacy study of LSD1i-conditioned BCMA-CART cells; parameters: species or system NSG mouse; conditions: mice bearing KMS11 tumors, 6.25 million T cells injected once
compound,measurement,setting,value
"Cc1cc2c(cc1C#N)c(-c1cccc(N)c1C)cn2[C@H]1CC[C@H](O)CC1 [Compound 93, Trans-3-(3-amino-2-methylphenyl)-1-(4-hydroxycyclohexyl)-6-methyl-1H-indole-5-carbonitrile]",Tscm and Tem in CAR+CD8+ T cells,[1]; CD19CAR+ and BCMA-CAR+ CD8+ T cells,"sustains CD19CAR+CD8 Tscm, reduces CAR+ Tem but only increases BCMA-CAR+ CD8+ Tscm in a dose dependent fashion"
same,total T cell percentage in final CART products,"[1]; UTD, CD19CART and BCMA-CART, 100, 10, 3.3, 1.1 nM from 48 hours after transduction",not change the total T cell percentage
same,CD8+ CAR and CD4+ CAR T cell proportions,[1]; different tested doses,does not affect
same,CD19-CAR or BCMA-CAR expression,[1]; different tested doses,does not remarkably affect
same,anti-tumor activity of treated untransduced T cells in vivo,luciferized KMS11 tumors,show anti-tumor activity in a slow regression mode over time
